In PubChem BioAssay AID504834 (National Center for Advancing Translational Sciences (NCATS), 2011):
The campaign covered roughly 320,000 compounds. About 22,000 (6.9%) were called active. The inconclusive results got no clear call from the source; some entries with a clear call stand among them for comparison. The call rests on the fitted dose curve; in most records, active means well fitted inhibition curve with a large enough effect; inconclusive means small, poorly fitted or top-dose-only effect, or another doubt; inactive means no such curve, though single readings can be large or run the other way. A potency beside an inconclusive call is a rough fit, not a confirmed value.

assay: Primary qHTS for delayed death inhibitors of the malarial parasite plastid, 96 hour incubation; conditions: P. falciparum luciferase reporter growth; series mostly up to 28.7 µM
Outline: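 Delayed-death screen, second-generation endpoint: infected erythrocytes, 2% hematocrit, 0.05% parasitemia final; 96 hours at 37 C, 5% CO2; luciferase detection reagent; luminescence decrease equals reduced growth.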
Potency means the concentration at half of the fitted maximal effect.

**Q.** Which Potency does the source give for `CCn1c(C)nc2cc(C(=O)NNC(=S)NC(=O)c3ccc(OC)cc3)ccc21` here?
**A.** inactive

**Q.** Which Potency does the source give for `O=C(CCn1nnnc1CN1CCOCC1)N1CCC(c2cccc(Cl)c2)C1` (stereo unspecified) here?
**A.** inconclusive: 16.5 µM [inhibitor, single point]

**Q.** Which Potency does the source give for `Cc1cc(C)cc(N2C(=O)NC(=O)/C(=C\c3cccn3-c3ccc(Cl)cc3)C2=O)c1` here?
**A.** inconclusive: 0.465 µM [inhibitor, full curve]

**Q.** For `CC1CCC(C(C)C)C(OCC(O)CNC(C)c2ccccc2)C1` (stereo unspecified), which Potency is on record?
**A.** inconclusive: 1.17 µM [inhibitor, full curve, poor fit]

**Q.** For `CCc1ccc2[nH]cc(S(=O)(=O)c3ccc(C)c(C)c3)c(=O)c2c1`, which Potency is on record?
**A.** inactive

**Q.** Which Potency does the source give for `Cc1cc(-c2ccccc2)cc(C)[n+]1Cc1ccccc1` here?
**A.** active: 0.37 µM

**Q.** For `O=C(CNc1ccccc1F)Nc1cccc2ccccc12`, which Potency is on record?
**A.** inactive

**Q.** Which Potency does the source give for `COc1ccc(CC(=O)OC(C)C(=O)NCc2ccc3c(c2)OCO3)cc1OC` (stereo unspecified) here?
**A.** inactive

**Q.** Which Potency does the source give for `CC(=O)N=c1sccn1CC(O)c1ccccc1` (stereo unspecified) here?
**A.** inconclusive: 11.7 µM [inhibitor, partial curve]

**Q.** With `Cc1sc2ncnc(N3CCC(C(=O)Nc4ccc(S(N)(=O)=O)cc4)CC3)c2c1C` as the compound, how does the Potency read?
**A.** inconclusive: 13.1 µM [inhibitor, single point]

**Q.** Which Potency does the source give for `Cc1cccc(C)c1NC(=O)CS(=O)CC(=O)NCCCc1ccccc1` (stereo unspecified) here?
**A.** inactive

**Q.** For `Cc1cccc(/C=N/n2c(-c3ccccc3)n[nH]c2=S)c1O`, which Potency is on record?
**A.** inconclusive: 18.5 µM [inhibitor, single point]

**Q.** With `CC(=O)N1CCN(C(=S)c2cccc([N+](=O)[O-])c2)CC1` as the compound, how does the Potency read?
**A.** inconclusive: 10.4 µM [inhibitor, single point]

**Q.** Which Potency does the source give for `CSC1=C(C#N)C(c2sccc2C)CC(=O)N1` (stereo unspecified) here?
**A.** inactive

**Q.** Which Potency does the source give for `COc1ccc(/C=C/C(=O)NC(=S)NNC(=O)Cc2cccs2)cc1OC` here?
**A.** inconclusive: 13.1 µM [inhibitor, single point]

**Q.** With `CCC(C)Sc1ccc(-c2nc3cnccn3c2NC2CCCCC2)cc1` (stereo unspecified) as the compound, how does the Potency read?
**A.** active: 7.38 µM

**Q.** Which Potency does the source give for `Cc1nnc(SCC(=O)Nc2ccc(-c3nc4ccccc4s3)cc2)s1` here?
**A.** inconclusive: 11.7 µM [inhibitor, single point]

**Q.** With `Cc1cccc(C(=O)Oc2ccc(/C=N/NC(=O)c3ccncc3)cc2)c1` as the compound, how does the Potency read?
**A.** active: 11.7 µM

**Q.** For `Cc1ccc(S(=O)(=O)N2CCN(C(=O)CN3CCOCC3)C2C(C)C)cc1` (stereo unspecified), which Potency is on record?
**A.** inconclusive: 0.0657 µM [inhibitor, full curve, poor fit]

**Q.** Which Potency does the source give for `O=C(NCc1ccco1)c1cc(-c2cccs2)on1` here?
**A.** inactive

**Q.** With `Cc1ccc2nc(N3CCN(CCO)CC3)nc(-c3ccccc3)c2c1` as the compound, how does the Potency read?
**A.** inconclusive: 18.5 µM [inhibitor, single point]
